Data as given in PubChem BioAssay AID1345085 (National Center for Advancing Translational Sciences (NCATS), 2018).
The shares of active, inactive and inconclusive entries below differ from those in the screen. Potencies of inconclusive entries are doubtful fits and often do not repeat. The source made the active and inactive calls. The call rests on the fitted dose curve; in most records, active means well fitted cell-killing curve with a large enough effect; inconclusive means small, poorly fitted or top-dose-only effect, or effect the other way; inactive means no such curve, though single readings can be large or run the other way.

Test system: Tov-21-G
Experiment: Confirmatory qHTS for gynecologic anti-cancer compounds from libraries of approved drugs and bioactive compounds; further: nearly all actives have a fitted effect of over 55% in size
Settings: gynecologic cancer cell panel viability, ATPlite luminescence, 48 h; series mostly up to 57.7 µM
Summary of the method: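 ATPlite luminescence read-out of cell viability; IC50 from 11-point 1:3 titrations, 57.5 uM to 0.977 nM, 48 h compound exposure at 37 C, 5% CO2. Cells seeded at 1,000/well 16 h before dosing.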
Potency means the concentration at half of the fitted maximal effect.

SMILES | Potency
Cc1ccc(C(N)=O)cc1Nc1nccc(-c2cn(C(C)C)c3cnccc23)n1 | active: 9680 nM
CC(C)CC(=O)Nc1n[nH]c2c1CN(C(=O)C1CCN(C)CC1)C2(C)C | active: 3850 nM
Cn1c(=O)c(-c2c(Cl)cccc2Cl)cc2cnc(Nc3cccc(C(=O)O)c3)nc21 | inconclusive: 15.3 nM [rising, partial curve]
FC(F)(F)c1ccc(/C=C/c2nc(COc3ccc(CCCCn4ccnn4)cc3)co2)cc1 | inconclusive: 13700 nM [rising, single point]
COCCOc1nc(-c2ccc(Cl)c(Cl)c2)n(-c2ccc(NC(=O)CCl)cc2)n1 | active: 1720 nM
C=CC(=O)Nc1cccc(Oc2nc(Nc3ccc(N4CCN(C)CC4)cc3)ncc2Cl)c1 | active: 3850 nM
COc1ccc(CCC(=O)c2c(O)cc(O[C@@H]3O[C@H](CO)[C@@H](O)[C@H](O)[C@H]3O[C@@H]3O[C@@H](C)[C@H](O)[C@@H](O)[C@H]3O)cc2O)cc1O | inconclusive: 12.2 nM [rising, full curve, poor fit]
CCCS(=O)c1ccc2nc(NC(=O)OC)[nH]c2c1 (stereo unspecified) | inconclusive: 122 nM [rising, partial curve]
CC(=O)OC12COC1CC(O)C1(C)C(=O)C(O)C3=C(C)C(OC(=O)C(O)C(NC(=O)OC(C)(C)C)c4ccccc4)CC(O)(C(OC(=O)c4ccccc4)C21)C3(C)C (stereo unspecified) | inactive
COc1cc2c(Oc3ccc(-c4cnc(Nc5ccc(F)cc5)n(C)c4=O)cc3F)ccnc2cc1OCCCN1CCOCC1 | active: 19300 nM
Cc1ccc(NC(=O)c2ccc(CN3CCN(C)CC3)cc2)cc1Nc1nccc(-c2cccnc2)n1 | inconclusive: 61.1 nM [rising, full curve, poor fit]
NC(=O)c1cnc(-c2ccc(C3(N)CCC3)cc2)c(-c2ccccc2)c1 | inconclusive: 15300 nM [cytotoxic, partial curve, poor fit]
CCCCN(CCCC)CC(O)c1cc(Cl)cc2c1-c1ccc(Cl)cc1/C2=C/c1ccc(Cl)cc1 (stereo unspecified) | inconclusive: 1090 nM [rising, partial curve]
O=C(Nc1cccnc1)N1CCC(Cc2cccc(Oc3ccc(C(F)(F)F)cn3)c2)CC1 | inconclusive: 12.2 nM [rising, full curve, poor fit]
CC1=C(/C=C/C(C)=C/C=C/C(C)=C/C(=O)Nc2ccc(O)cc2)C(C)(C)CCC1 | inconclusive: 43200 nM [cytotoxic, single point]
S=c1nc[nH]c2nc[nH]c12 | inconclusive: 385 nM [cytotoxic, full curve]
COc1cc(C(=O)N2CCC(N3CCN(C)CC3)CC2)ccc1Nc1ncc2c(n1)N(C)c1ccccc1C(=O)N2C | inconclusive: 3850 nM [cytotoxic, full curve]
CN(C)/N=N/c1nc[nH]c1C(N)=O | inactive
CC1(C)[C@@H](O)CC[C@]2(C)[C@H]3C(=O)C=C4[C@@H]5C[C@@](C)(C(=O)O)CC[C@]5(C)CC[C@@]4(C)[C@]3(C)CC[C@@H]12 | inactive
C[C@@]1(C(=O)Nc2ccc(F)nc2)CCCN1c1nc(Nc2cc(C3CC3)[nH]n2)c2cccn2n1 | inconclusive: 1220 nM [cytotoxic, full curve, poor fit]
CCC1C(=O)N(C)c2cnc(Nc3ccc(C(=O)NC4CCC(N5CCN(CC6CC6)CC5)CC4)cc3OC)nc2N1C(C)C (stereo unspecified) | inconclusive: 2430 nM [cytotoxic, full curve, poor fit]
CC(=O)Nc1cccc(-n2c(=O)n(C3CC3)c(=O)c3c(Nc4ccc(I)cc4F)n(C)c(=O)c(C)c32)c1 | inconclusive: 3060 nM [cytotoxic, full curve, poor fit]
Cn1cnc([N+](=O)[O-])c1Sc1ncnc2nc[nH]c12 | inconclusive: 243 nM [rising, partial curve, poor fit]
Cc1cc(C(C)Nc2ccccc2C(=O)O)c2nc(N3CCOCC3)cc(=O)n2c1 (stereo unspecified) | inconclusive: 485 nM [cytotoxic, full curve, poor fit]
O=c1c(-c2ccc(O)cc2)coc2cc(O)cc(O)c12 | inconclusive: 863 nM [rising, partial curve]
Cn1cnc2c(F)c(Nc3ccc(Br)cc3Cl)c(C(=O)NOCCO)cc21 | inconclusive: 1.4 nM [cytotoxic, full curve, poor fit]

A few values from above.
Under Potency, CC(C)CC(=O)Nc1n[nH]c2c1CN(C(=O)C1CCN(C)CC1)C2(C)C has the entry active: 3850 nM
Under Potency, COCCOc1nc(-c2ccc(Cl)c(Cl)c2)n(-c2ccc(NC(=O)CCl)cc2)n1 has the entry active: 1720 nM
